Experimental data taken from PubChem BioAssay AID493014 (National Center for Advancing Translational Sciences (NCATS), 2011).
Values joined by “and” are separate entries in the source; they are usually repeats but may differ in a detail not shown here. Equal entries are not always repeated. The list shows a part of the results. Further columns of the screen follow, without active or inactive calls. Compounds called inactive in the main read-out are mostly missing here. The note in brackets gives the kind of curve behind each potency; many fits are weak.

Assay: qHTS Assay to Find Inhibitors of Chronic Active B-Cell Receptor Signaling
Settings: ABC-DLBCL IkBa-CBG/CBR reporter, luminescence ratio (green luciferase fused to IkBa over red control in TMD8 lymphoma cells), 4 h
Outline: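 Doxycycline induced both beetle luciferases in TMD8 lymphoma cells; IKK-driven degradation limits the IkappaBalpha-fused green signal, while red luminescence normalises for cell number and nonspecific effects. Compounds tested up to 46 uM, 4 hrs.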

[1] = measured here: CBR red luminescence, cell number
[2] = measured here: IkBa-CBG green luminescence

Structure (SMILES)	AC50 [1]	AC50 [2]
O=C(COc1ccccc1)n1nc(-c2ccc(Cl)cc2)nc1NCc1ccco1	29.1 µM [falling, single point]	–
N#C/C(=C(/O)c1ccco1)c1nc2ccccc2s1	1.58 µM [falling, full curve, poor fit] and 2.82 µM [falling, full curve, poor fit]	–
Cc1cc2c(cc1C)N(C(=O)CSC1=NCCS1)C(C)(C)c1ssc(=S)c1-2	20.6 µM [falling, single point]	–
C/C(=N\Nc1ccccn1)c1ccc(C(C)C)cc1	12.6 µM [rising, partial curve, poor fit]	17.8 µM [falling, single point]
COc1ccccc1C(=O)Nc1ccc(C)cc1C(=O)c1ccccc1	14.6 µM [rising, partial curve]	–
O=S(=O)(Nc1cc(F)ccc1F)c1cccc2nsnc12	6.31 µM [rising, single point]	–
COc1ccccc1NC(=O)CSc1nc(O)cc(=O)n1-c1ccccc1OC	4.47 µM [falling, full curve]	–
O=C1Nc2c(Br)cccc2C1=O	20.6 µM [rising, single point]	29.1 µM [falling, single point]
CCCCSc1nc(C)cc(SCC(=O)N/N=C/c2ccccc2)n1	4.47 µM [rising, full curve]	–
COc1ccc(CCNC(=S)NCc2ccc(Cl)c(Cl)c2)cc1OC	14.1 µM [falling, single point]	–
CCN1C(=O)/C(=C/C=C2/SCCN2C)SC1=S	35.5 µM [rising, partial curve, poor fit]	–
O=C(CSc1ccc(F)cc1)N1CCC(c2nc3ccccc3s2)CC1	35.5 µM [falling, single point]	–
CCCCS(=O)(=O)c1sc2nc(C)cc(C)c2c1N	7.31 µM [rising, partial curve, poor fit]	–
O=c1oc2c(O)cccc2cc1-c1nc2ccccc2[nH]1	5.01 µM [falling, full curve]	–
Cc1ccccc1C(=O)Nc1cccc(-c2ccc(N3CCOCC3)nn2)c1	6.51 µM [rising, single point]	–
C/C(=N\NC(=O)c1cccc(N2CCCC2=O)c1)c1ccc(N)cc1	35.5 µM [falling, single point]	–
O=C(c1c(F)cccc1F)N1CCCC(c2nc(-c3ccc(Cl)cc3)no2)C1 (configuration not stated)	0.708 µM [rising, full curve, poor fit]	–
C=CC[C@]12CCc3sccc3C1N(c1ccc(C(=O)OCC)cc1)C2=O (some centres not stated)	23.1 µM [falling, single point]	18.4 µM [rising, partial curve, poor fit]
COc1ccc(-c2noc(CCCC(=O)Nc3cccnc3)n2)cc1OC	2 µM [rising, partial curve, poor fit]	–
CC(=O)OCC(=O)[C@H]1CC[C@H]2[C@@H]3CCC4=CC(=O)CC[C@]4(C)[C@H]3CC[C@]12C	7.31 µM [rising, partial curve]	–
COc1ccccc1C(=O)Nc1nnc(-c2ccco2)s1	1.84 µM [falling, full curve]	–

Structure (SMILES)	AC50 [1]	AC50 [2]
CN(C)c1ccc(/C=N/NC(=O)c2ccccn2)cc1	1.58 µM [falling, full curve]	–
N/C(=N\OC(=O)c1ccc2ccccc2c1)c1ccccn1	5.01 µM [falling, partial curve]	–
O=C(CCCc1nc2ccccc2s1)NCc1ccccc1	0.651 µM [rising, partial curve, poor fit]	–
CCNC(=O)/C(C#N)=C/c1c(N2CCN(Cc3ccc4c(c3)OCO4)CC2)nc2c(C)cccn2c1=O	29.1 µM [falling, single point]	–
O=[N+]([O-])c1ccc2nc(-[n+]3c(-c4ccccc4)cc(-c4ccccc4)cc3-c3ccccc3)[nH]c2c1	2.91 µM [rising, single point]	–
O=C(CCCN1C(=O)CCC1=O)Nc1ccc2c(c1)OCO2	23.1 µM [rising, single point]	–
CCN(C(=O)COC(=O)c1cc(=O)c2ccccc2o1)c1c(N)n(Cc2ccccc2)c(=O)[nH]c1=O	0.231 µM [rising, full curve, poor fit]	–
CN1CC(c2ccccc2)C(c2ccc(Cl)cc2)=N1 (configuration not stated)	13 µM [rising, partial curve, poor fit]	–
N#C/C(=C\c1cn(-c2ccccc2)nc1-c1ccccc1)S(=O)(=O)c1ccccc1	7.31 µM [falling, partial curve, poor fit]	–
N#CC(=NCc1cccnc1)C1=C(O)c2ccccc2C1=O	35.5 µM [falling, single point]	–
Cc1nc(-c2cc(-c3ccc(Cl)cc3)no2)cs1	3.16 µM [falling, full curve, poor fit]	–
CCOC(=O)NC(CC(=O)O)c1ccc(OC)cc1 (configuration not stated)	3.98 µM [rising, single point]	–
Cc1ccc(NC(=O)c2ccc3c(c2)C(=O)N(Cc2cccnc2)C3=O)c(C)c1	11.2 µM [rising, partial curve]	–
CC(C)CCNC(=O)NC(=O)COC(=O)c1cc(S(=O)(=O)N2CCOCC2)ccc1N1CCCCC1	10.3 µM [falling, single point]	–
Cc1cccc(N=Nc2c(C)nn(-c3ccccc3)c2N)c1C	2.59 µM [rising, full curve, poor fit]	–
CCCCNS(=O)(=O)c1ccc2nc(-c3cccs3)cc(C(=O)NCC(OC)OC)c2c1	6.51 µM [rising, single point]	–
NS(=O)(=O)c1ccc(CNC(=O)c2cc(=O)c3cc(Cl)ccc3o2)cc1	0.501 µM [rising, partial curve, poor fit]	–
C/C(Cl)=C\Cn1c(O)c(N=NC(N)=S)c2cc(Br)ccc21	12.6 µM [rising, partial curve]	7.08 µM [falling, partial curve]
Cc1ccc(C)c(NC(=O)C2(C)CC3c4ccccc4C2c2ccccc23)c1 (configuration not stated)	6.31 µM [rising, full curve, poor fit]	–
Cc1c(Nc2nc3ccccc3nc2NS(=O)(=O)c2cccs2)c(=O)n(-c2ccccc2)n1C	29.1 µM [rising, single point]	–
Cc1cc(C)c2c(c1)/C(=N/NS(=O)(=O)c1ccc(Br)cc1)CCC2	8.2 µM [falling, partial curve]	–

4 structures out of the list, sorted by molar mass, falling:
Structure (SMILES)	AC50 [1]	AC50 [2]
Cc1c(Nc2nc3ccccc3nc2NS(=O)(=O)c2cccs2)c(=O)n(-c2ccccc2)n1C	29.1 µM [rising, single point]	–
O=[N+]([O-])c1ccc2nc(-[n+]3c(-c4ccccc4)cc(-c4ccccc4)cc3-c3ccccc3)[nH]c2c1	2.91 µM [rising, single point]	–
N#C/C(=C\c1cn(-c2ccccc2)nc1-c1ccccc1)S(=O)(=O)c1ccccc1	7.31 µM [falling, partial curve, poor fit]	–
CN1CC(c2ccccc2)C(c2ccc(Cl)cc2)=N1 (configuration not stated)	13 µM [rising, partial curve, poor fit]	–

Following part:

Structure (SMILES)	AC50 [1]	AC50 [2]
COc1ccc(NC(=O)CSc2nccc(C)n2)cc1	23.1 µM [rising, partial curve, poor fit]	–
O=C(CSc1n[nH]c(=O)[nH]c1=O)c1ccccc1[N+](=O)[O-]	10 µM [falling, partial curve, poor fit]	–
COc1ccc(/C=N/NC(=O)c2ccc3c(c2)NC(=O)C(C)(C)O3)cc1OC	11.2 µM [rising, partial curve, poor fit]	11.2 µM [falling, partial curve]
CCSc1nsc(NC(=O)Nc2cccc(F)c2)n1	0.398 µM [falling, full curve]	–
Cc1cc(C)c2[nH]c(=O)c(CN(CC3CCCO3)C(=O)c3cnccn3)cc2c1 (configuration not stated)	35.5 µM [rising, single point]	–
CCS(=O)(=O)c1nc(S(=O)(=O)c2ccc(Cl)cc2)c(NCCOC)s1	5.62 µM [falling, single point]	–
COc1ccc(OCc2nc(N)nc(Nc3ccccc3)n2)cc1	23.1 µM [rising, partial curve, poor fit]	–
CC(C)CNC(=O)CCc1c[nH]c2ccccc12	35.5 µM [falling, single point]	–
COc1cc(OC)cc(C(=O)NNC(=S)NC2CC2)c1	35.5 µM [falling, single point]	–
COc1ccc(C2NC(=O)NC(C)=C2C(=O)OC2CCCC(C)C2)cc1 (configuration not stated)	1 µM [rising, partial curve, poor fit]	–
COc1ccc(C(=O)OCC(=O)N2C(C)CCCC2C)cc1[N+](=O)[O-] (configuration not stated)	3.98 µM [rising, full curve]	–
O=C(CCSCCc1ccccn1)Nc1ccccn1	14.1 µM [falling, partial curve, poor fit]	–
COc1cccc2cc(C(=O)OCc3ccccc3)c(=O)oc12	12.6 µM [falling, partial curve, poor fit]	–
COc1ccc(-c2nn(-c3ccccc3)cc2CNC(=O)c2cccc([N+](=O)[O-])c2)cc1	14.6 µM [rising, single point]	–
COc1ccc([N+](=O)[O-])cc1C1NN=C(c2ccccc2O)S1 (configuration not stated)	25.1 µM [falling, single point]	–
O=C(Cc1cc(=O)[nH]c(=O)[nH]1)NCc1ccc(Cl)cc1	29.1 µM [rising, partial curve, poor fit]	–
CC(=O)Nc1ccc(NC(=O)C(C)OC(=O)CCCN=C2NS(=O)(=O)c3ccccc32)cc1 (configuration not stated)	25.9 µM [falling, single point]	–
COC(=O)c1cc(-c2ccc(Br)cc2)n[nH]1	3.66 µM [rising, partial curve, poor fit]	–
c1ccc(-n2cc(CN3CCCC(CN4CCCC4)C3)c(-c3ccc4c(c3)OCO4)n2)cc1 (configuration not stated)	35.5 µM [falling, single point]	–
CCOc1ccccc1Nc1cc(C)c2cccc(C)c2n1	25.1 µM [rising, single point]	–
